The supplement of paper PMC6411743
± gives the standard deviation of the averaged measurements. Some of the results follow.

Chains of the proteins cited; added tags and fusions are not shown. Lines headed by an entry give the natural chain unless they say otherwise; changes in a name come on top.
UniProt Q9HCJ3: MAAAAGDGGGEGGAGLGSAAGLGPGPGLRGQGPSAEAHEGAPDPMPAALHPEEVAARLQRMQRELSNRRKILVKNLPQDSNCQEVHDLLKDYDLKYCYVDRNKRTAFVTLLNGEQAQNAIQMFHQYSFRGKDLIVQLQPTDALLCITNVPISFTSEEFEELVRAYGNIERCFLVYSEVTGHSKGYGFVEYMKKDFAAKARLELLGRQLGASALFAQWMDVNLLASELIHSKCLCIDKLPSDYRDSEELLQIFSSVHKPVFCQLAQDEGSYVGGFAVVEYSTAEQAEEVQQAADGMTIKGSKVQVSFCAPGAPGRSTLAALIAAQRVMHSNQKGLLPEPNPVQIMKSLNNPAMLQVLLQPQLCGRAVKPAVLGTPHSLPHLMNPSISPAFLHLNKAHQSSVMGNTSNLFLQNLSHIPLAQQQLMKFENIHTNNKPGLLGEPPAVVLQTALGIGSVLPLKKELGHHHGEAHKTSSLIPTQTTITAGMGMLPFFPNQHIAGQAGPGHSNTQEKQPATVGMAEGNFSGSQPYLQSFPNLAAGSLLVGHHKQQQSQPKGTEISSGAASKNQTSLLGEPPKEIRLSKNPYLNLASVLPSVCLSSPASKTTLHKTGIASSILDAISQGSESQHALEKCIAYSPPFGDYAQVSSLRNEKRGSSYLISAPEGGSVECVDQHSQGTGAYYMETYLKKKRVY
UniProt Q9H2K0, whole entry, looked up: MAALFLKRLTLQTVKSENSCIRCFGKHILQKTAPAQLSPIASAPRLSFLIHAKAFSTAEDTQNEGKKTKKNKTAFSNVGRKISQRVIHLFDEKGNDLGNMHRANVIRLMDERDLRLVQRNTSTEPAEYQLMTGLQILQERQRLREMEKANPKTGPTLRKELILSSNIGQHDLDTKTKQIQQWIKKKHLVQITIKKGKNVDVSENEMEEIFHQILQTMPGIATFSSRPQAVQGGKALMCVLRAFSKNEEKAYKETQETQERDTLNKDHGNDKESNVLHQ
UniProt Q9H9Y6, whole entry: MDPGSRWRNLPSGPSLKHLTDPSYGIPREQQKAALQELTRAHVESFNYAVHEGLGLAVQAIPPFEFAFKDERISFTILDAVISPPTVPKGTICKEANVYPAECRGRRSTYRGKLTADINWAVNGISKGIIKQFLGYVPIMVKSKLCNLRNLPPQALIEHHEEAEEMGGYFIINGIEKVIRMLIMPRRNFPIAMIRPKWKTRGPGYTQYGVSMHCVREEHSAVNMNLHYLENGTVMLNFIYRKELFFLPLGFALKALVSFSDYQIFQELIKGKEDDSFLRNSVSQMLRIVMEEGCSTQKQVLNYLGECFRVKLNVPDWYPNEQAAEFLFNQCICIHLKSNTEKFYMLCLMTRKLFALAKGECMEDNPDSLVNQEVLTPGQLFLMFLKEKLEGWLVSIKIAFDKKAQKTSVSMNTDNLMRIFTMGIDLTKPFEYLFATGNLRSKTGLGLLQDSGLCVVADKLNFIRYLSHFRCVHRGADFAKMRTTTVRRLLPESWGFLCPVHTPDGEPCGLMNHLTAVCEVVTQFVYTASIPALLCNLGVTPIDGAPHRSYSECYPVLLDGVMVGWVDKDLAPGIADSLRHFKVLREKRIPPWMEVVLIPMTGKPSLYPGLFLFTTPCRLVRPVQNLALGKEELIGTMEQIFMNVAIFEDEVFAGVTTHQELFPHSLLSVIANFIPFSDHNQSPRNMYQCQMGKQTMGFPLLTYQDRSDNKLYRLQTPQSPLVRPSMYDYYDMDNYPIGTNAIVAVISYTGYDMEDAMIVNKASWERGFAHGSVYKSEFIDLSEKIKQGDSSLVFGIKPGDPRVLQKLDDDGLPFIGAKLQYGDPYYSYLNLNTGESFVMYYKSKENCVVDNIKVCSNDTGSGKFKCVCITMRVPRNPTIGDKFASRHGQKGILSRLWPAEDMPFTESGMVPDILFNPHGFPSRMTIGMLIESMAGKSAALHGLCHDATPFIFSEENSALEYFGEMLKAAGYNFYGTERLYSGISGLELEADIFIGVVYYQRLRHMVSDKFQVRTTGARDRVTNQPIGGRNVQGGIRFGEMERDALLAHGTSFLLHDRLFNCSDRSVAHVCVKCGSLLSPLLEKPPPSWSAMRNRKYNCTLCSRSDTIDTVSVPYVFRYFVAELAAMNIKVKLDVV
UniProt Q9H582: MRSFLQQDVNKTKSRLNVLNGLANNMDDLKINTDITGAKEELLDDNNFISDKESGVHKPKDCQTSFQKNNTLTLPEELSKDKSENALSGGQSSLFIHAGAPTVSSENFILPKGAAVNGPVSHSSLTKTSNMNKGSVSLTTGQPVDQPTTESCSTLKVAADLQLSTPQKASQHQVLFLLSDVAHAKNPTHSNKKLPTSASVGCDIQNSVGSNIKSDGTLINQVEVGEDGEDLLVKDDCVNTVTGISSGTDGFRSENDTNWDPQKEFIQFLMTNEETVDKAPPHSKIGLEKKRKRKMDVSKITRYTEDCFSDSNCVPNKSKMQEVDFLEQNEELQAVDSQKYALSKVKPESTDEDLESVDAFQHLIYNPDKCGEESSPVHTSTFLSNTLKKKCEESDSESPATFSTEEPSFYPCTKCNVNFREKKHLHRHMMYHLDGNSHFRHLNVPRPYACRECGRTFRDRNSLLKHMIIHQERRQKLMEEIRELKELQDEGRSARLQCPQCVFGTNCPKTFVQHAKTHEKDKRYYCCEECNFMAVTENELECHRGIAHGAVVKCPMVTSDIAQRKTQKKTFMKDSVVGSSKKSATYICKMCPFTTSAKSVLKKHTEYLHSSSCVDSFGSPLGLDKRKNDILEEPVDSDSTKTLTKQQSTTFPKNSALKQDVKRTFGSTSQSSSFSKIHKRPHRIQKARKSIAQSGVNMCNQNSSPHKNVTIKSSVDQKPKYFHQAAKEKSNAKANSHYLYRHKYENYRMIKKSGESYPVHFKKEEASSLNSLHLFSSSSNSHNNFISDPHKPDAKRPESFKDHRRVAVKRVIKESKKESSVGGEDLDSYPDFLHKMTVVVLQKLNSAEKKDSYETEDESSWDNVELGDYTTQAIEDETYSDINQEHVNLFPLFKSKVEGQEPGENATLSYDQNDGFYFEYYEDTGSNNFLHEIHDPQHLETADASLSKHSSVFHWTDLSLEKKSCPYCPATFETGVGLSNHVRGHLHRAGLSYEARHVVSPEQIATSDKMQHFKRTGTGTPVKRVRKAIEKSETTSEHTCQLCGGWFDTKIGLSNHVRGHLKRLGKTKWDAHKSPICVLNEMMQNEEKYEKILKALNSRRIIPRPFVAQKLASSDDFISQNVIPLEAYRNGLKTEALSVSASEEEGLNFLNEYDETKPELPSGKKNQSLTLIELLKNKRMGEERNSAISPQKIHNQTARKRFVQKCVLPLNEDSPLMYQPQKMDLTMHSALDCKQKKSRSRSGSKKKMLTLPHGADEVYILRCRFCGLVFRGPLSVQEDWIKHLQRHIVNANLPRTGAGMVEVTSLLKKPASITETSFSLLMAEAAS
UniProt Q9H147: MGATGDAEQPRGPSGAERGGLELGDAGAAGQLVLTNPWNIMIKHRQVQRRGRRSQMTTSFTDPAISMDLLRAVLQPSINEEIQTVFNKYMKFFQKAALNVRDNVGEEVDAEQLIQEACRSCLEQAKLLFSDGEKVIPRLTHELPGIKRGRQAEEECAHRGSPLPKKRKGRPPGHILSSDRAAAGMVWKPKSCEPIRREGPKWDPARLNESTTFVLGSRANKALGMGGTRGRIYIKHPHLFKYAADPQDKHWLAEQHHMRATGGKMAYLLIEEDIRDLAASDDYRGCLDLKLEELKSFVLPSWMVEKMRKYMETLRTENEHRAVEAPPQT
UniProt Q9H1Y0: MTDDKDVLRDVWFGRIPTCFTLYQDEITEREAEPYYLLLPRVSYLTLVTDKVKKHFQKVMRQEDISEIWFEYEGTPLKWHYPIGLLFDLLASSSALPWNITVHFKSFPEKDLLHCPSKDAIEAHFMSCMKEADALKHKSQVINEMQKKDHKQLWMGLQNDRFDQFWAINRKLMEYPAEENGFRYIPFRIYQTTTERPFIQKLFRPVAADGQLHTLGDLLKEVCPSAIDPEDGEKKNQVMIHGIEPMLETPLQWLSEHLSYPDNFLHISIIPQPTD
UniProt Q9H6E4: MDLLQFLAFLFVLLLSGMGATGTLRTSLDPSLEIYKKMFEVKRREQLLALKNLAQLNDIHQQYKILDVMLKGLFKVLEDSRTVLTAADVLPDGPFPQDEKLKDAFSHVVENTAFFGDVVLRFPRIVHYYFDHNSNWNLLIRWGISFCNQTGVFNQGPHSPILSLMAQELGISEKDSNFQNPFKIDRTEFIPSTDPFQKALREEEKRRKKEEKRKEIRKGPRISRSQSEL
UniProt Q9NRN7: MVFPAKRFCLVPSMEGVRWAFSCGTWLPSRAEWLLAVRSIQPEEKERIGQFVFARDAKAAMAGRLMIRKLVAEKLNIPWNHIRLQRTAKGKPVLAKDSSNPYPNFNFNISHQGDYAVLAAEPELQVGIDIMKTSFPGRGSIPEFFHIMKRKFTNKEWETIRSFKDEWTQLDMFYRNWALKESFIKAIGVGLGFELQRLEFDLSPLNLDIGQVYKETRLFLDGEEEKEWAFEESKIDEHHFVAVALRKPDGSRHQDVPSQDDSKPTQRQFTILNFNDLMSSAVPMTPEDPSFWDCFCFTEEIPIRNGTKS
UniProt Q9H6R7: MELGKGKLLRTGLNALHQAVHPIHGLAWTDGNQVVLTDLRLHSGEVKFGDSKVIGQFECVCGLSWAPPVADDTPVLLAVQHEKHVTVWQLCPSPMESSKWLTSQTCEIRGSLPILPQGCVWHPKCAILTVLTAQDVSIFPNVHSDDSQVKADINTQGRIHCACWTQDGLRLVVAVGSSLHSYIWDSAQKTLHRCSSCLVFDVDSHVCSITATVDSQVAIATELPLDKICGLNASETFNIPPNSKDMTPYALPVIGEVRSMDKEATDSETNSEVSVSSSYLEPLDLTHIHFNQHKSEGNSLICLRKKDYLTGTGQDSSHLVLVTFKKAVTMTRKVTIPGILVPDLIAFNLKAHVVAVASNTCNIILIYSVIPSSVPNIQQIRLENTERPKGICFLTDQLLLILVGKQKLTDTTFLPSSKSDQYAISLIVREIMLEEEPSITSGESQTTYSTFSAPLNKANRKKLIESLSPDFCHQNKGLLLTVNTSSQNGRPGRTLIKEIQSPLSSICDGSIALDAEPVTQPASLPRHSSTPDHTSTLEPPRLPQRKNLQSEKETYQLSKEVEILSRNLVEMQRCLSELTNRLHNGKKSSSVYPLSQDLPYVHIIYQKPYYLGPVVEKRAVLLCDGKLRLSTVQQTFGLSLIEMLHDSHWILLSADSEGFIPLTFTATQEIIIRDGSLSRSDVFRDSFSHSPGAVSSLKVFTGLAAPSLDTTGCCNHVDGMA
UniProt Q9H7Z7: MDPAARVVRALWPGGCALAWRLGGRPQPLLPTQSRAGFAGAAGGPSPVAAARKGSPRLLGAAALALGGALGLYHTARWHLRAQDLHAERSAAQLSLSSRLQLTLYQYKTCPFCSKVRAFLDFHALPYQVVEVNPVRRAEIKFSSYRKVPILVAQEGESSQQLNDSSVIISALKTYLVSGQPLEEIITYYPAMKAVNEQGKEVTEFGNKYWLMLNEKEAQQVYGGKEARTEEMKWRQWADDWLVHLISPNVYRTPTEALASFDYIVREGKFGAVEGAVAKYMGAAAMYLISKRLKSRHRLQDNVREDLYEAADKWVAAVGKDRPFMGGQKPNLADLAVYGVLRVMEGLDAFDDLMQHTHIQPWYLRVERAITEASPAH
UniProt Q9H2F5, whole entry: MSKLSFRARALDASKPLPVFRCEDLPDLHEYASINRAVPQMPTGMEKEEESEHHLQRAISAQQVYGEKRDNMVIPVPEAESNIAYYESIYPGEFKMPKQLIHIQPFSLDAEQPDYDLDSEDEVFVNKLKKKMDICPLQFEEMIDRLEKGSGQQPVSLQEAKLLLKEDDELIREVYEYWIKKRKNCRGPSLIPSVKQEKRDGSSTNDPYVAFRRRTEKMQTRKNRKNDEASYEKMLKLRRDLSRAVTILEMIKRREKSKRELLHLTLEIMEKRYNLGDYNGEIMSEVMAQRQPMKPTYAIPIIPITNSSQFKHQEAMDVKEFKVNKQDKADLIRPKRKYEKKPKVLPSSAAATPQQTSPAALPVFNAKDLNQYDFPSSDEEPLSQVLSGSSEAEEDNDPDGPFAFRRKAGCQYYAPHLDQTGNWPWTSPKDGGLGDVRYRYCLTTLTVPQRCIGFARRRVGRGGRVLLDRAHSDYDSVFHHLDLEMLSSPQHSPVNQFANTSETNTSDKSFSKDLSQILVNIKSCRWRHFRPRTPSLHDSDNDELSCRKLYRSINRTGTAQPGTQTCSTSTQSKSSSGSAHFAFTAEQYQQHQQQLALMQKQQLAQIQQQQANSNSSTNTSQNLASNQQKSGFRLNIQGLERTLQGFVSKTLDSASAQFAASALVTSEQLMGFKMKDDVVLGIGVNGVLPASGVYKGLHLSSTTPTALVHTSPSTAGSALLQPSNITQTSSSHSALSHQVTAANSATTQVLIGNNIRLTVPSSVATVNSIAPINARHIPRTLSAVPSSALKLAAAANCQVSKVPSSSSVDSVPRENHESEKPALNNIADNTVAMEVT

Compound: Nc1nc2c(ncn2[C@@H]2O[C@H](COP(=O)(O)OP(=O)(O)OP(=O)(O)O)[C@@H](O)[C@H]2O)c(=O)[nH]1 [guanosine triphosphate]
Assay: NP40-soluble protein abundance relative to vehicle (solubility fold change) (ratio); higher = more soluble protein in presence of GTP
Procedure, shortened: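 Across three independent experiments, values are fold changes against the detergent-processed vehicle for each replicate, based on vsn-normalised intensities. The samples were Jurkat crude lysate treated with eight concentrations (0.1 to 10 mM) for 10 min at room temperature and then 3 min at 37 °C. Lysate was solubilised with 0.8% NP40 and benzonase, ultracentrifuged, and the supernatant analysed by TMT-labelled LC-MS/MS.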

Target | NP40-soluble protein abundance (concentration: 0.1mM) | NP40-soluble protein abundance (concentration: 0.5mM) | NP40-soluble protein abundance (concentration: 1mM) | NP40-soluble protein abundance (concentration: 2mM) | NP40-soluble protein abundance (concentration: 4mM) | NP40-soluble protein abundance (concentration: 6mM) | NP40-soluble protein abundance (concentration: 8mM) | NP40-soluble protein abundance (concentration: 10mM)
FN3KRP (UniProt Q9HA64) | 0.9717 ± 0.0097 | 0.991 ± 0.014 | 0.927 ± 0.032 | 0.913 ± 0.061 | 0.905 ± 0.042 | 0.884 ± 0.031 | 0.89 ± 0.047 | 0.868 ± 0.051
UniProt Q9HCJ3 and related entries | 0.998 ± 0.096 | 1.06 ± 0.05 | 0.997 ± 0.074 | 1.01 ± 0.12 | 0.982 ± 0.05 | 0.999 ± 0.086 | 0.966 ± 0.062 | 1 ± 0.11
YTHDC2 (UniProt Q9H6S0) | 1.24 ± 0.19 | 1.28 ± 0.27 | 1.28 ± 0.26 | 1.28 ± 0.19 | 1.27 ± 0.19 | 1.28 ± 0.19 | 1.34 ± 0.23 | 1.26 ± 0.069
IARS2 (UniProt Q9NSE4) | 1 ± 0.029 | 1.02 ± 0.046 | 0.925 ± 0.014 | 0.916 ± 0.04 | 0.894 ± 0.05 | 0.901 ± 0.03 | 0.868 ± 0.027 | 0.847 ± 0.053
ZHX3 (UniProt Q9H4I2) | 0.975 ± 0.062 | 0.94 ± 0.043 | 0.994 ± 0.1 | 1.01 ± 0.099 | 0.967 ± 0.039 | 1.01 ± 0.079 | 1.05 ± 0.07 | 1.05 ± 0.11
MTIF3 (UniProt Q9H2K0) | 1.04 ± 0.046 | 1.03 ± 0.029 | 1.16 ± 0.3 | 1.16 ± 0.054 | 1.12 ± 0.077 | 1.21 ± 0.11 | 1.3 ± 0.12 | 1.36 ± 0.21
UTP3 (UniProt Q9NQZ2) | 0.964 ± 0.037 | 0.963 ± 0.031 | 0.987 ± 0.075 | 1.04 ± 0.067 | 1.01 ± 0.097 | 1.03 ± 0.083 | 1.02 ± 0.098 | 1.02 ± 0.06
CUEDC2 (UniProt Q9H467) | 0.911 ± 0.065 | 0.867 ± 0.062 | 0.97 ± 0.012 | 0.919 ± 0.04 | 0.934 ± 0.039 | 0.891 ± 0.036 | 0.901 ± 0.099 | 0.943 ± 0.05
UniProt Q9H9Y6 and related entries | 1.07 ± 0.13 | 1.11 ± 0.11 | 1.05 ± 0.14 | 1.19 ± 0.2 | 1.26 ± 0.19 | 1.26 ± 0.23 | 1.24 ± 0.15 | 1.23 ± 0.17
UniProt Q9H582 and related entries | 1.27 ± 0.24 | 1.17 ± 0.22 | 1.15 ± 0.053 | 1.091 ± 0.0033 | 1.14 ± 0.02 | 1.27 ± 0.11 | 1.12 ± 0.081 | 1.26 ± 0.14
UniProt Q9GZT8 and related entries | 0.9977 ± 0.0072 | 1 ± 0.094 | 0.876 ± 0.064 | 0.907 ± 0.13 | 0.907 ± 0.054 | 0.906 ± 0.087 | 0.873 ± 0.013 | 0.859 ± 0.04
UniProt Q9GZP4 | 1.05 ± 0.015 | 1.03 ± 0.048 | 0.943 ± 0.071 | 0.944 ± 0.089 | 0.899 ± 0.08 | 0.911 ± 0.11 | 0.872 ± 0.06 | 0.848 ± 0.09
UniProt Q9NQW7-3 | 0.998 ± 0.018 | 1.01 ± 0.022 | 0.936 ± 0.015 | 0.925 ± 0.019 | 0.924 ± 0.026 | 0.92 ± 0.021 | 0.909 ± 0.034 | 0.877 ± 0.047
SUDS3 (UniProt Q9H7L9) | 0.951 ± 0.08 | 1 ± 0.048 | 1.044 ± 0.0054 | 1.04 ± 0.053 | 1.08 ± 0.093 | 1.09 ± 0.034 | 1.14 ± 0.07 | 1.13 ± 0.072
UniProt Q9H147 and related entries | 1.08 ± 0.14 | 1.03 ± 0.091 | 1.16 ± 0.13 | 1.14 ± 0.082 | 1.14 ± 0.12 | 1.12 ± 0.073 | 1.17 ± 0.14 | 1.15 ± 0.095
WDR11 (UniProt Q9BZH6) | 1.3 ± 0.42 | 1.08 ± 0.14 | 1.19 ± 0.28 | 1.09 ± 0.16 | 1.03 ± 0.19 | 1.07 ± 0.14 | 1 ± 0.15 | 1.01 ± 0.13
UniProt Q9NP50 and related entries | 1.09 ± 0.069 | 1.13 ± 0.028 | 1.14 ± 0.061 | 1.1 ± 0.04 | 1.09 ± 0.12 | 1.08 ± 0.075 | 1.12 ± 0.13 | 1.12 ± 0.11
MRPL40 (UniProt Q9NQ50) | 1.06 ± 0.2 | 1.08 ± 0.22 | 1.31 ± 0.35 | 1.41 ± 0.34 | 1.47 ± 0.35 | 1.42 ± 0.37 | 1.49 ± 0.42 | 1.45 ± 0.45
EXOSC3 (UniProt Q9NQT5) | 1.1 ± 0.069 | 1.04 ± 0.08 | 1.12 ± 0.051 | 1.18 ± 0.15 | 1.35 ± 0.14 | 1.25 ± 0.17 | 1.32 ± 0.11 | 1.29 ± 0.11
ATG5 (UniProt Q9H1Y0) | 1.02 ± 0.018 | 0.986 ± 0.015 | 0.952 ± 0.043 | 0.946 ± 0.056 | 0.941 ± 0.063 | 0.948 ± 0.055 | 0.952 ± 0.062 | 0.952 ± 0.073
WDR61 (UniProt Q9GZS3) | 1.01 ± 0.031 | 1.04 ± 0.073 | 0.973 ± 0.059 | 0.992 ± 0.084 | 0.987 ± 0.068 | 1 ± 0.071 | 0.965 ± 0.052 | 0.904 ± 0.032
CCDC134 (UniProt Q9H6E4) | 0.934 ± 0.071 | 0.893 ± 0.1 | 0.944 ± 0.089 | 0.911 ± 0.087 | 0.905 ± 0.077 | 0.881 ± 0.084 | 0.869 ± 0.1 | 0.86 ± 0.091
ILKAP (UniProt Q9H0C8) | 0.959 ± 0.034 | 0.95 ± 0.023 | 0.905 ± 0.049 | 0.904 ± 0.058 | 0.88 ± 0.058 | 0.897 ± 0.048 | 0.87 ± 0.049 | 0.869 ± 0.065
AASDHPPT (UniProt Q9NRN7) | 1.02 ± 0.025 | 1.03 ± 0.059 | 0.884 ± 0.025 | 0.883 ± 0.041 | 0.878 ± 0.024 | 0.855 ± 0.034 | 0.804 ± 0.066 | 0.807 ± 0.075
UniProt Q9H6R7 and related entries | 1.2 ± 0.09 | 1.15 ± 0.14 | 1.19 ± 0.081 | 1.18 ± 0.032 | 1.07 ± 0.15 | 1.09 ± 0.13 | 1.09 ± 0.2 | 1.11 ± 0.2
UniProt Q9H7Z7 and related entries | 0.9842 ± 0.0065 | 0.943 ± 0.027 | 0.916 ± 0.011 | 0.889 ± 0.029 | 0.889 ± 0.039 | 0.875 ± 0.01 | 0.838 ± 0.046 | 0.85 ± 0.062
UniProt Q9H2F5 and related entries | 1.22 ± 0.22 | 1.29 ± 0.34 | 1.16 ± 0.17 | 1.31 ± 0.27 | 1.45 ± 0.39 | 1.44 ± 0.56 | 1.41 ± 0.51 | 1.55 ± 0.68
PDLIM7 (UniProt Q9NR12) | 0.921 ± 0.038 | 0.937 ± 0.052 | 0.894 ± 0.067 | 0.91 ± 0.085 | 0.882 ± 0.041 | 0.894 ± 0.046 | 0.913 ± 0.05 | 0.915 ± 0.036
SFXN1 (UniProt Q9H9B4) | 0.976 ± 0.055 | 0.962 ± 0.038 | 0.935 ± 0.07 | 0.917 ± 0.08 | 0.916 ± 0.11 | 0.918 ± 0.075 | 0.885 ± 0.1 | 0.873 ± 0.097
OSGEP (UniProt Q9NPF4) | 1.07 ± 0.042 | 1.02 ± 0.043 | 0.963 ± 0.018 | 0.937 ± 0.054 | 0.94 ± 0.063 | 0.915 ± 0.039 | 0.925 ± 0.055 | 0.879 ± 0.059

A run of entries from the list above:
Target | NP40-soluble protein abundance (concentration: 0.1mM) | NP40-soluble protein abundance (concentration: 0.5mM) | NP40-soluble protein abundance (concentration: 1mM) | NP40-soluble protein abundance (concentration: 2mM) | NP40-soluble protein abundance (concentration: 4mM) | NP40-soluble protein abundance (concentration: 6mM) | NP40-soluble protein abundance (concentration: 8mM) | NP40-soluble protein abundance (concentration: 10mM)
SUDS3 (UniProt Q9H7L9) | 0.951 ± 0.08 | 1 ± 0.048 | 1.044 ± 0.0054 | 1.04 ± 0.053 | 1.08 ± 0.093 | 1.09 ± 0.034 | 1.14 ± 0.07 | 1.13 ± 0.072
UniProt Q9H147 and related entries | 1.08 ± 0.14 | 1.03 ± 0.091 | 1.16 ± 0.13 | 1.14 ± 0.082 | 1.14 ± 0.12 | 1.12 ± 0.073 | 1.17 ± 0.14 | 1.15 ± 0.095
WDR11 (UniProt Q9BZH6) | 1.3 ± 0.42 | 1.08 ± 0.14 | 1.19 ± 0.28 | 1.09 ± 0.16 | 1.03 ± 0.19 | 1.07 ± 0.14 | 1 ± 0.15 | 1.01 ± 0.13
UniProt Q9NP50 and related entries | 1.09 ± 0.069 | 1.13 ± 0.028 | 1.14 ± 0.061 | 1.1 ± 0.04 | 1.09 ± 0.12 | 1.08 ± 0.075 | 1.12 ± 0.13 | 1.12 ± 0.11
MRPL40 (UniProt Q9NQ50) | 1.06 ± 0.2 | 1.08 ± 0.22 | 1.31 ± 0.35 | 1.41 ± 0.34 | 1.47 ± 0.35 | 1.42 ± 0.37 | 1.49 ± 0.42 | 1.45 ± 0.45
